Assay results published in article PMC8219681, “Inhibition of MRN activity by a telomere protein motif” (Nature Communications, 2021).
Results are given in words; binding and its absence hold for the method and conditions named. Some results given as binding are weak or reduced against the parent protein; the word gives no strength. Tags and fused reporters may be left off the sequences shown.

Molecular target: Taz1-min (S. pombe Taz1 F511E, P513N), two-hybrid fusion (S. pombe) (UniProt P79005)
Test: two-hybrid; GBD and GAD plasmids (pGBKT7, pGADT7) co-transformed in strain PJ69-4A; HIS3 and ADE2 reporters, 3 mM 3-aminotriazole in some plates; 30 °C, 3-4 days

B1: Taz1-min (S. pombe Taz1 F511E, P513N), two-hybrid fusion (protein, UniProt P79005 1-663)
chain: MISVQSTETIQKVLENEGDQQFDKEVVQNSDSNIETGQISDSLTKAVEERAETESSSNLSNFTTSESESSKPAYCFNSHSQNMAEGSISIPVISHSMNVENEVSTAEGQDSRTGESENDQNAMIVRSIWDIEKASLLVNDCQNIANMAEQKVMMVSAIFSESSKDIVNPESFSERLGKETVKDLYEFNEQLTTKYGLEFRTIFFSYIRKYDAYWCLFEDLEKPLKSIQFFTGLIDLLDNTNKHLTLRSIVLDALLSADEEDSFYGDALVLFEELVIRYFGTDSNPSIDASEFILSCLPYTSLDALNVVCGQVWKSQKICDFLKSTIGNTSNSPLQLRASFPAFVNAVIHFLLEFKNVRRLERKDLSVKGMLYDSDSQQILNRLRERVSGSTAQSADEASGHESDASEDTFSERTLGLNSIDNTEISEVVSLGLVSSALDKITGLLSADNLSETVSQARDFSHTLSKSLKSRAKSLSQKEAANRSKLIAKRGDNLRREASLSSEQDDLSEDEPNVRESDEQESRSGGRSSAMRVSIERSAARSGTRRSQGNPYEGYRTRRKWTDEEENELYEMISQHGCCWSKIIHIQKLENGPLKTFGPTQIKDKARLIKARFMKQNRLQELYSKSLNWKNVTVGQAYCELHKIPYIEATPPLLREELVNYQS
With B1 the binding was “binds”.
